From paper PMC11650987
No constants are given. Whether binding was seen depends on the method and setting. In cells and extracts the contact can be indirect. Here binding means that the protein was enriched with, or labelled near, the bait; the list need not be complete.

Target: HBx-TurboID fusion protein (FLAG-HBx-Turbo) (hepatitis B virus (strain B200, genotype B))
Test: proximity labelling; TurboID: Huh7 cells transfected with pFLAG-HBx-Turbo compared with pFLAG-Turbo, 50 µM biotin for 30 min, RIPA lysis, biotinylated proteins captured on streptavidin Dynabeads, LC-MS/MS, MaxQuant iBAQ

B1: valosin-containing protein-interacting protein 1 (VCPIP1), endogenous (enzyme, UniProt Q96JH7 1-1222)
chain: MSQPPPPPPPLPPPPPPPEAPQTPSSLASAAASGGLLKRRDRRILSGSCPDPKCQARLFFPASGSVSIECTECGQRHEQQQLLGVEEVTDPDVVLHNLLRNALLGVTGAPKKNTELVKVMGLSNYHCKLLSPILARYGMDKQTGRAKLLRDMNQGELFDCALLGDRAFLIEPEHVNTVGYGKDRSGSLLYLHDTLEDIKRANKSQECLIPVHVDGDGHCLVHAVSRALVGRELFWHALRENLKQHFQQHLARYQALFHDFIDAAEWEDIINECDPLFVPPEGVPLGLRNIHIFGLANVLHRPIILLDSLSGMRSSGDYSATFLPGLIPAEKCTGKDGHLNKPICIAWSSSGRNHYIPLVGIKGAALPKLPMNLLPKAWGVPQDLIKKYIKLEEDGGCVIGGDRSLQDKYLLRLVAAMEEVFMDKHGIHPSLVADVHQYFYRRTGVIGVQPEEVTAAAKKAVMDNRLHKCLLCGALSELHVPPEWLAPGGKLYNLAKSTHGQLRTDKNYSFPLNNLVCSYDSVKDVLVPDYGMSNLTACNWCHGTSVRKVRGDGSIVYLDGDRTNSRSTGGKCGCGFKHFWDGKEYDNLPEAFPITLEWGGRVVRETVYWFQYESDSSLNSNVYDVAMKLVTKHFPGEFGSEILVQKVVHTILHQTAKKNPDDYTPVNIDGAHAQRVGDVQGQESESQLPTKIILTGQKTKTLHKEELNMSKTERTIQQNITEQASVMQKRKTEKLKQEQKGQPRTVSPSTIRDGPSSAPATPTKAPYSPTTSKEKKIRITTNDGRQSMVTLKSSTTFFELQESIAREFNIPPYLQCIRYGFPPKELMPPQAGMEKEPVPLQHGDRITIEILKSKAEGGQSAAAHSAHTVKQEDIAVTGKLSSKELQEQAEKEMYSLCLLATLMGEDVWSYAKGLPHMFQQGGVFYSIMKKTMGMADGKHCTFPHLPGKTFVYNASEDRLELCVDAAGHFPIGPDVEDLVKEAVSQVRAEATTRSRESSPSHGLLKLGSGGVVKKKSEQLHNVTAFQGKGHSLGTASGNPHLDPRARETSVVRKHNTGTDFSNSSTKTEPSVFTASSSNSELIRIAPGVVTMRDGRQLDPDLVEAQRKKLQEMVSSIQASMDRHLRDQSTEQSPSDLPQRKTEVVSSSAKSGSLQTGLPESFPLTGGTENLNTETTDGCVADALGAAFATRSKAQRGNSVEELEEMDSQDAEMTNTTEPMDHS
binding: binds
